{"sequences": {"note": "Protein sequences, listed by entry. Tags and fused reporters are not part of them.", "UniProt Q0JBA9, entry or part of it": "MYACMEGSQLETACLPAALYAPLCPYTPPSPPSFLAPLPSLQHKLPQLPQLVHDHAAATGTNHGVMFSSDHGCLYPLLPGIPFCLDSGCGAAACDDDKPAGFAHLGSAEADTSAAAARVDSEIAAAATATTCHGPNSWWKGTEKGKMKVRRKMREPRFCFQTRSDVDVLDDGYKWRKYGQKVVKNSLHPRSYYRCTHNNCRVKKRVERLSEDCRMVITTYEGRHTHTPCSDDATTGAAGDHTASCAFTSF"}, "source": "paper PMC7819943", "about": "“Rice protein-binding microarrays: a tool to detect cis-acting elements near promoter regions in rice”", "note": "The list shows a part of the results.", "data": [{"target": "OsWRKY34 (Oryza sativa, UniProt Q0JBA9 1-250)", "test": "protein-binding microarray (RPBM); PBS, 2% BSA, 51.3 ng/ul salmon testes DNA, 50 uM zinc acetate, 200 nM TF, 25 C, 1 h; high values mean tight binding", "conditions": "protein: recombinant; tags: N-terminal polyhistidine and DsRed monomer fusion (pET32a); label: CyDye5-dUTP incorporated in the synthesized complementary strand; 3' TTTTT single-stranded linker to array surface; dsDNA, one strand shown", "method_in_brief": "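Per-feature fluorescence intensity (arbitrary units), read on an Axon 4000B scanner, is the binding signal. Transcription factors carrying an N-terminal polyhistidine tag and DsRed fusion were expressed in E. coli BL21-CodonPlus and purified on Ni–NTA. A custom Agilent array, made double-stranded by primer extension with Cy5-dUTP and blocked with 2% BSA, was incubated with 200 nM protein in PBS, 2% BSA, salmon testes DNA and 50 µM zinc acetate at 25 °C for 1 h and then washed.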", "values": [{"sequence": "TATTTCATTTTCCACGCGCACGTTTCCGAACTACTAAACGCGGAGTCACCTAGTGCAG", "binding signal": "8560 fluorescence intensity (a.u.)"}, {"sequence": "TCAGTGTACTGTACCGTGGTTTTGGGCCTTCTGAGCTATGCGGAGTCACCTAGTGCAG", "binding signal": "8560 fluorescence intensity (a.u.)"}, {"sequence": "CCCTAACACCCTCGCCGCCGCCGACCCATTCGCCGCCGCCCGGAGTCACCTAGTGCAG", "binding signal": "8210 fluorescence intensity (a.u.)"}, {"sequence": "AGACATCATTTTTGCTACACTACAGTGCATTATTCCTAATCGGAGTCACCTAGTGCAG", "binding signal": "8850 fluorescence intensity (a.u.)"}, {"sequence": "GTATGCTTGTTGTACACAGTAATTCTGTCTCATGTAGCCTCGGAGTCACCTAGTGCAG", "binding signal": "9170 fluorescence intensity (a.u.)"}, {"sequence": "GAGCCGCGTCGAGTAGCATGTATGATTTCTGATATTGTACCGGAGTCACCTAGTGCAG", "binding signal": "8810 fluorescence intensity (a.u.)"}, {"sequence": "AGGGAGGTTGGATTGTGTTGGTCGTGTCGAGTTGGTCTGTCGGAGTCACCTAGTGCAG", "binding signal": "9750 fluorescence intensity (a.u.)"}, {"sequence": "CGTTGTTTTTTTAGCGATTTTTCTGTTTTTTTCCTTTTTACGGAGTCACCTAGTGCAG", "binding signal": "9830 fluorescence intensity (a.u.)"}, {"sequence": "CACCCAACACAGATTATTCAACCCCTACCATGCCACTCTCCGGAGTCACCTAGTGCAG", "binding signal": "8560 fluorescence intensity (a.u.)"}, {"sequence": "CGATTCGTGGCCACGCCAGATCGATCTCGCGGATAATTTTCGGAGTCACCTAGTGCAG", "binding signal": "8440 fluorescence intensity (a.u.)"}, {"sequence": "AAACTCGAGCCTGATAAAACCACCTCCTAATCCATCCCCGCGGAGTCACCTAGTGCAG", "binding signal": "8350 fluorescence intensity (a.u.)"}, {"sequence": "TAGCACACACACAAACACACATCATTTTGTTTACCAAACACGGAGTCACCTAGTGCAG", "binding signal": "9550 fluorescence intensity (a.u.)"}, {"sequence": "GGGGTTAGGTTTGTCTCCTGTGGCTTGTTGATGCTTTGCTCGGAGTCACCTAGTGCAG", "binding signal": "9950 fluorescence intensity (a.u.)"}, {"sequence": "TGAGGTGTTAGGGTTTGAGTGCTAGGTTGTTTGCTTGATGCGGAGTCACCTAGTGCAG", "binding signal": "10100 fluorescence intensity (a.u.)"}, {"sequence": "CCATTGGCCATTGCCATGCAAATGCAGTCTATAAAGATAACGGAGTCACCTAGTGCAG", "binding signal": "9080 fluorescence intensity (a.u.)"}, {"sequence": "AGTCATCACAAGCATTCTTTTATCACTTCAACTTGTGGAACGGAGTCACCTAGTGCAG", "binding signal": "8540 fluorescence intensity (a.u.)"}, {"sequence": "ATCTCATCTCACCCCTACATAGTGGATCATGTACGTATCACGGAGTCACCTAGTGCAG", "binding signal": "9290 fluorescence intensity (a.u.)"}, {"sequence": "ATGCGCTGTTCTTGCTATCCCTCTCGTCAGTTTGTGCCCTCGGAGTCACCTAGTGCAG", "binding signal": "11300 fluorescence intensity (a.u.)"}, {"sequence": "TCTCTTAGGCCTATTCGGTTCACGGGATTTCCCAATCACACGGAGTCACCTAGTGCAG", "binding signal": "8200 fluorescence intensity (a.u.)"}, {"sequence": "CCGCTGCTGTTTTCTTTTCTTTTGTAAGTGTGTAACGTTACGGAGTCACCTAGTGCAG", "binding signal": "9400 fluorescence intensity (a.u.)"}, {"sequence": "GGTTCATCTCCTATCTCTAGTTAGATATACAATTTACATGCGGAGTCACCTAGTGCAG", "binding signal": "8270 fluorescence intensity (a.u.)"}, {"sequence": "TCACCTACGTATCTCTTCGCTGCACTTTCTATTTTTTATACGGAGTCACCTAGTGCAG", "binding signal": "15500 fluorescence intensity (a.u.)"}, {"sequence": "CCTCTGTATTTTGGCCTATACTTTCAGTTTGACCACTTACCGGAGTCACCTAGTGCAG", "binding signal": "9140 fluorescence intensity (a.u.)"}, {"sequence": "CGTGTGGAGAGGATAGGGATATGAGTTTGTATTTGACCCTCGGAGTCACCTAGTGCAG", "binding signal": "8040 fluorescence intensity (a.u.)"}, {"sequence": "AAAAAATCTTATCAGGTAACCGTACTTCTACCTGATTAGGCGGAGTCACCTAGTGCAG", "binding signal": "13000 fluorescence intensity (a.u.)"}, {"sequence": "ACAGAGATTAGCTTCCAACACTATTAATTTCTCACCCCAACGGAGTCACCTAGTGCAG", "binding signal": "8410 fluorescence intensity (a.u.)"}, {"sequence": "GACTATAGTGCCTTTGATTTTCCTGTCAGATCAACTCCTTCGGAGTCACCTAGTGCAG", "binding signal": "8190 fluorescence intensity (a.u.)"}, {"sequence": "TCTGGCTTAGTTACTGTACAATTCATATCTACGTGCACTGCGGAGTCACCTAGTGCAG", "binding signal": "8280 fluorescence intensity (a.u.)"}, {"sequence": "GAGATTGGAAGCACCATTTGACATTACGCGCCTGATTCATCGGAGTCACCTAGTGCAG", "binding signal": "9310 fluorescence intensity (a.u.)"}, {"sequence": "ACGAGCGCCCCACCACCATCTCATTCTTGCCTCCTCCAAACGGAGTCACCTAGTGCAG", "binding signal": "9250 fluorescence intensity (a.u.)"}, {"sequence": "GCTTTCTCTCTCTCTCTCTCTCACTTGTTCCCCAAGGCGACGGAGTCACCTAGTGCAG", "binding signal": "13000 fluorescence intensity (a.u.)"}, {"sequence": "TATAGGAGTGAGTATATACACACTGCAGTGTTTGTTTTTTCGGAGTCACCTAGTGCAG", "binding signal": "8320 fluorescence intensity (a.u.)"}, {"sequence": "ACCCTCCGCGCCCACGATCCCTTCTCTCTCTCTTGATCGACGGAGTCACCTAGTGCAG", "binding signal": "8050 fluorescence intensity (a.u.)"}, {"sequence": "GCAGTTTTGGTGGCCCCAATGTTGACTCGCACTTTTTGTACGGAGTCACCTAGTGCAG", "binding signal": "9710 fluorescence intensity (a.u.)"}, {"sequence": "TATGTGCTAAAAAGTCAACGGTGTCAAACATTTCGAAACGCGGAGTCACCTAGTGCAG", "binding signal": "14000 fluorescence intensity (a.u.)"}, {"sequence": "TCACCTCTTCTGGCCCAACACGTTAACATTCTATTCTCACCGGAGTCACCTAGTGCAG", "binding signal": "9170 fluorescence intensity (a.u.)"}, {"sequence": "GTTGATTTCATTAGCGAGTTTACCCACAGCACAATAAACTCGGAGTCACCTAGTGCAG", "binding signal": "8510 fluorescence intensity (a.u.)"}, {"sequence": "GGTTATGTGCTTGTGTAGGCTTGATGGGTATTTGGGCCTTCGGAGTCACCTAGTGCAG", "binding signal": "9000 fluorescence intensity (a.u.)"}, {"sequence": "CAGGGAGAAGGGTGGCAGTCGTTGGGCGGCGGTGGTAGGTCGGAGTCACCTAGTGCAG", "binding signal": "10200 fluorescence intensity (a.u.)"}, {"sequence": "GCCCCACCCTGCAGCGACTCCGGCTCGCTCGAGCGAGACACGGAGTCACCTAGTGCAG", "binding signal": "8360 fluorescence intensity (a.u.)"}, {"sequence": "ATGTGGGCCTAAGGGCATTTTTGACATTTCACGCGATTTCCGGAGTCACCTAGTGCAG", "binding signal": "9440 fluorescence intensity (a.u.)"}, {"sequence": "TTTCTGTTTTTTTTGGCTCGTCATCGTTGGTTTCATATACCGGAGTCACCTAGTGCAG", "binding signal": "10700 fluorescence intensity (a.u.)"}, {"sequence": "CGGCGGCGGAGGAGGAGGAGGAGGAGGGCGCGGGGCGGCGCGGAGTCACCTAGTGCAG", "binding signal": "21700 fluorescence intensity (a.u.)"}, {"sequence": "ACAGTTTGACTTTGATCAAAGTCAAAACGTCTTGTAACCTCGGAGTCACCTAGTGCAG", "binding signal": "11600 fluorescence intensity (a.u.)"}, {"sequence": "AGGGGTTGTTTTGTGGATAATTCGACCTGTTAATGCTACCCGGAGTCACCTAGTGCAG", "binding signal": "9950 fluorescence intensity (a.u.)"}, {"sequence": "GAGTCTCGTTTCATCTCCATCTCCATCCGCGCGCGCGCGCCGGAGTCACCTAGTGCAG", "binding signal": "10200 fluorescence intensity (a.u.)"}, {"sequence": "TGAAATATGGTTTGCATAAAGTTTGCCATCCACGATATCCCGGAGTCACCTAGTGCAG", "binding signal": "8320 fluorescence intensity (a.u.)"}, {"sequence": "GCGCCTGCGTTCTTCCGTCCGCTTCGCCTCGGCCGCGCGCCGGAGTCACCTAGTGCAG", "binding signal": "8280 fluorescence intensity (a.u.)"}, {"sequence": "GCACCGAATCCCCATCCCCGCCGCTGTAAATCCCTTCGCGCGGAGTCACCTAGTGCAG", "binding signal": "8510 fluorescence intensity (a.u.)"}, {"sequence": "CTACTTTAGCATTAGTTTCTACTTTAGCATTAGTTTTCTGCGGAGTCACCTAGTGCAG", "binding signal": "8070 fluorescence intensity (a.u.)"}, {"sequence": "TTATATGTGGCCCAGATTTCCAACGCGGTTAAAGTGGGTGCGGAGTCACCTAGTGCAG", "binding signal": "8640 fluorescence intensity (a.u.)"}, {"sequence": "GAACTTAAATCGACTAGCCCACATCTTACGGTATTAGCCGCGGAGTCACCTAGTGCAG", "binding signal": "8620 fluorescence intensity (a.u.)"}, {"sequence": "GGACAACCGCTCGGTCTCATGAATCAGTTTAGTCTGGGACCGGAGTCACCTAGTGCAG", "binding signal": "8300 fluorescence intensity (a.u.)"}, {"sequence": "GTTGCCAGATCTGATGCTGATCCTGTTCCTGTTGCAAGAACGGAGTCACCTAGTGCAG", "binding signal": "9120 fluorescence intensity (a.u.)"}]}]}
